Reference: patent publication US20240245806A1, “TREATMENT OF NEURODEGENERATIVE DISEASE USING CSA- AND INDY-TYPE COMPOUNDS” (BROWN UNIVERSITY, priority 2021, published 2024)
“Also recorded” adds a separate entry of the source. At least one compound was matched to its structure with a doubt left. Some entries share one result that the patent states for a list of compounds.

Columns and labels:
zebrafish larvae [1] = assay: Acute exposure of 5 dpf zebrafish larvae to modulators of calcineurin signaling, automated analysis of behavior; type: in vivo, Danio rerio; details: vs DMSO; for early activity (first hour of imaging) / late activity (period 15): 5 dpf acute exposure, 10 μM CsA, 1 μM FK506, 1 μM rapamycin, proINDY
Experimental: Zebrafish larvae were treated at 5 dpf with various modulators of calcineurin signaling, starting 3 hours before imaging. The larvae were then imaged for a total of 3 hours using a behavioral assay with various visual and acoustic stimuli (FIG. 6). The behavioral assay started with a 1-hour period without stimuli, followed by 80 minutes with visual stimuli, 10 minutes without visual or acoustic stimuli, and 30 minutes with acoustic stimuli. Values of activity (% move) and position (% up) were averaged in individual larvae during 10-minute periods, for a total of 18 periods. These values were subsequently averaged between larvae in the same treatment group. We examined a total of 10 treatment groups. For clarity, only 3 treatment groups were graphed (FIG. 6), but all 10 treatment groups were analyzed in detail as shown in subsequent figures. […] The assay provides quantitative information on activity, visually-guided behaviors and acoustic startle responses.
To determine if larval zebrafish behavior is affected by modulation of calcineurin signaling, we imaged 5 day-old larvae in the following 10 treatment groups: 10 μM cyclosporine A (CsA), 1 μM tacrolimus (FK506), 5 or 10 μM proINDY, a combination of CsA+5 or 10 μM proINDY, or a combination of FK506+5 or 10 μM proINDY, DMSO as a vehicle control, and 1 μM rapamycin as a control for target specificity. Rapamycin and FK506 are both macrolide immunosuppressants with similar structures, however, rapamycin affects Target of Rapamycin (TOR) signaling instead of calcineurin signaling. Vellanki et al., Front Mol Biosci 7, 588913 (2020). The concentrations of CsA, FK506 and rapamycin were selected based on prior studies in zebrafish embryos and larvae. Clift et al., Behav Brain Res 282, 117-124 (2015). The two concentrations of proINDY, a membrane-permeable form of INDY (inhibitor of DYRK), were selected based on studies in cell lines and Xenopus embryos. Ogawa et al., Nat Commun 1, 86 (2010).
The research project has been conducted in accordance with local and federal guidelines for ethical and humane use of animals and has been reviewed and approved by the Brown University Institutional Animal Care and Use Committee. Zebrafish (Danio rerio) embryos were collected and grown to larval stages as previously described. Thorn et al., Sci Rep 9, 13989 (2019). Adult wild-type zebrafish are maintained at Brown University as a genetically-diverse outbred strain in a mixed male and female population. Zebrafish embryos from 0-3 days post-fertilization (dpf) and zebrafish larvae from 3-5 dpf were maintained at 28.5° C. in 2 L culture trays with egg water, containing 60 mg/L sea salt (Instant Ocean) and 0.25 mg/L methylene blue in deionized water. Embryos and larvae were kept on a 12 hour light/12 hour dark cycle and were randomly assigned to different experimental groups prior to experimental manipulation. The sex of embryos and larvae cannot be determined at such early stages because zebrafish use elusive polygenic factors for sex determination, and both males and females have juvenile ovaries between 2.5 and 4 weeks of development. Zebrafish larvae were imaged at 5 dpf when the larvae display a range of locomotor behaviors and consume nutrients available in the yolk sac. Larvae are approximately 4 mm long at the 5 dpf stage.
Cyclosporine (cyclosporin A, Enzo Life Sciences), FK506 (tacrolimus, Enzo Life Sciences), rapamycin (Santa Cruz Biotechnology) and proINDY (Tocris Bioscience) were diluted in egg water from 1000× stocks dissolved in dimethyl sulfoxide (DMSO). DMSO (1 μl/ml DMSO) was added to the single treatments and the corresponding DMSO concentration was used as a vehicle control for all solutions. Larvae were exposed at 5 dpf to treatment solutions or DMSO for a total of 6 hours. Larvae were first treated in a Petri dish for 2 hours, transferred with the treatment solution to white 96-well ProxiPlates (PerkinElmer, 6006290) for 1 hour, and then imaged in the treatment solution for 3 hours. […]

[2] = system: zebrafish embryos and larvae; assay: Developmental exposure (2-3, 3-4 or 4-5 dpf) of zebrafish to modulators of calcineurin signaling, behavior imaged at 5 dpf; type: in vivo; details: period not specified
Experimental: Zebrafish. Adult wild type zebrafish (Danio rerio) are maintained at Brown University as a genetically-diverse outbred strain in a mixed male and female population. Zebrafish embryos were collected and grown to larval stages as described previously. Thorn et al., Sci Rep 9, 13989 (2019). Embryos from 0-3 days post-fertilization (dpf) and larvae from 3-5 dpf were kept on a 12 hour light/12 hour dark cycle at 28.5° C. in 2 L culture trays with egg water, containing 60 mg/L sea salt (Instant Ocean) and 0.25 mg/L methylene blue in deionized water. Zebrafish embryos and larvae were randomly assigned to different experimental groups prior to experimental manipulation. The sex of embryos and larvae cannot be determined at such early stages because zebrafish use elusive polygenic factors for sex determination, and both males and females have juvenile ovaries between 2.5 and 4 weeks of development. Liew et al., Brief Funct Genomics 13(2), 172-187 (2014). Zebrafish larvae were imaged at 5 dpf when they are approximately 4 mm long, display a range of locomotor behaviors and consume nutrients available in the yolk sac. Clift et al., Zebrafish 11(5), 455-461 (2014).
Pharmacological treatments. […]

zebrafish larvae [3] = assay: Behavioral screen of 190 FDA-approved drugs in 5-day-old zebrafish larvae (activity, optomotor and acoustic responses); type: in vivo, Danio rerio; details: 10 μM, 5 dpf larvae
Source text: Zebrafish. The research project has been conducted in accordance with local and federal guidelines for ethical and humane use of animals and has been reviewed and approved by the Brown University Institutional Animal Care and Use Committee. Zebrafish (Danio rerio) embryos were collected and grown to larval stages as previously described. Pelkowski et al., Behav Brain Res 223, 135-144 (2011). Adult wild-type zebrafish are maintained at Brown University as a genetically-diverse outbred strain in a mixed male and female population. […] Embryos and larvae were kept on a 12 hour light/12 hour dark cycle and were randomly assigned to different experimental groups prior to experimental manipulation. The sex of embryos and larvae cannot be determined at such early stages because zebrafish use elusive polygenic factors for sex determination, and both males and females have juvenile ovaries between 2.5 and 4 weeks of development. Zebrafish larvae were imaged at 5 dpf when the larvae display a range of locomotor behaviors and consume nutrients available in the yolk sac. Clift et al., Zebrafish 11, 455-461 (2014). Larvae are approximately 4 mm long at the 5 dpf stage. Pharmacological treatments. Zebrafish larvae were treated with 190 FDA-approved compounds using a Tocris small-molecule library (Tocris Bioscience, Cat. No. 7200). […] Larvae were first treated in a Petri dish for 2 hours, transferred with the treatment solution to white 96-well ProxiPlates (PerkinElmer, 6006290) for 1 hour, and then imaged in the treatment solution for 3 hours. Imaging system. Zebrafish larvae were imaged in an imaging system that holds four 96-well plates for automated analysis of behavior in a 384-well format (FIG. 1). Briefly, the imaging system is housed in a 28.5° C. temperature-controlled cabinet where larvae in white 96-well ProxiPlates are placed onto a glass stage. Above the stage, a high-resolution camera (18-megapixel Canon EOS Rebel T6 with an EF-S 55-250 mm f/4.0-5.6 IS zoom lens) captures an image of the larvae in the four 96-well plates every 6 seconds. The camera is connected to a continuous power supply (Canon ACK-E10 AC Adapter) and controlled by a laptop computer using Canon's Remote Capture software (EOS Utility, version 3), which is included with the camera. Two small speakers (OfficeTec USB Computer Speakers Compact 2.0 System) were attached speaker-side down to the glass stage. Speakers were connected by USB to the laptop computer and set to maximum volume. […] Behavioral assay. Visual and acoustic stimuli are controlled by an automated 3-hour PowerPoint presentation that is shown to the larvae. […] Larvae were not exposed to visual stimuli and acoustic stimuli at the same time. The visual stimuli consisted of a series of moving lines that were red, green or blue. […]

| Structure (SMILES) | early activity (first hour of imaging) (zebrafish larvae [1]) | late activity (period 15) (zebrafish larvae [1]) | early activity (first hour of imaging) (zebrafish larvae [1]; listed as RM) | late activity (period 15) (zebrafish larvae [1]; listed as RM) | excitability (acoustic stimuli at 1-second intervals) (zebrafish larvae [1]; 5 dpf acute) | habituation to acoustic stimuli at 1-second intervals (zebrafish larvae [1]; 5 dpf acute) | optomotor response to red lines (zebrafish larvae [1]; 5 dpf acute, proINDY 5 μM) | late activity (period 15) [2] | decrease in OMR compared to the DMSO-vehicle control (zebrafish larvae [3]) | early activity (1 hr) (zebrafish larvae [3]; vs DMSO) | excitability (E) in response to acoustic stimuli at 1-second intervals (zebrafish larvae [3]; vs DMSO) | optomotor response (OMR) (zebrafish larvae [3]; vs DMSO) |
| --- | --- | --- | --- | --- | --- | --- | --- | --- | --- | --- | --- | --- |
| CO[C@H]1C[C@@H]2CC[C@@H](C)[C@@](O)(O2)C(=O)C(=O)N2CCCC[C@H]2C(=O)O[C@H]([C@H](C)C[C@@H]2CC[C@@H](O)[C@H](OC)C2)CC(=O)[C@H](C)/C=C(\C)[C@@H](O)[C@@H](OC)C(=O)[C@H](C)C[C@H](C)/C=C/C=C/C=C/1C [Rapamycin, rapamycin] | increased early activity | increased activity | significant increase in both early and late activity | significant increase in both early and late activity | increased excitability | normal habituation | did not induce a significant change in the optomotor response | did not induce such increases in activity | – | – | – | – |
| CC(C)C[C@H]1C(=O)N2CCC[C@H]2[C@]2(O)O[C@](NC(=O)[C@@H]3C=C4c5cccc6[nH]c(Br)c(c56)C[C@H]4N(C)C3)(C(C)C)C(=O)N12 [Bromocriptine] | – | – | – | – | – | – | – | – | greater than 10% | increase in early activity | increase in excitability | negative values; also recorded: decrease in OMR; also recorded: swam in the opposite direction; also recorded: reversed optomotor response |
